We go through three molecules from paper PMC6199276.

Chains of the proteins cited; added tags and fusions are not shown. Lines headed by an entry give the natural chain unless they say otherwise; changes in a name come on top.
UniProt O16850: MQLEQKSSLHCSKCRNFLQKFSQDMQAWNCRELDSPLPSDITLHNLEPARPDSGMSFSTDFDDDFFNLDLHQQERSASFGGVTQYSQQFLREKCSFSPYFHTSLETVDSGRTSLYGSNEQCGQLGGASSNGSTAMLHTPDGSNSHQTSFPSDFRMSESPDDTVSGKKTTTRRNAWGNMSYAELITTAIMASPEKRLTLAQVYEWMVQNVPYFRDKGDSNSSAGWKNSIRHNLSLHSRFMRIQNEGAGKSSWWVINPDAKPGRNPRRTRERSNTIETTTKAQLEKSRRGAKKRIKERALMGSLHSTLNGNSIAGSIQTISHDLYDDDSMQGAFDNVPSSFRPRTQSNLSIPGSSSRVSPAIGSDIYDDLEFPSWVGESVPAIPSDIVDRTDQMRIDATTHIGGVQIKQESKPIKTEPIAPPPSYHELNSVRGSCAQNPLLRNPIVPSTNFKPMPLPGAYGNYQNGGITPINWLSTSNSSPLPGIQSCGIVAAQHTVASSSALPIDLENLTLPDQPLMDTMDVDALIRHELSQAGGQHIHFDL

Results are given in words; binding and its absence hold for the method and conditions named. Binding seen in cells or lysates may run through a third protein. Here binding means that the protein was enriched with, or labelled near, the bait; the list need not be complete.

The assay concerns the target DAF-16::GFP (C. elegans) (UniProt O16850). Nature of the assay: affinity purification with mass spectrometry; DAF-16::GFP immunoprecipitated with anti-GFP antibody (3E6) on Protein A resin from whole-worm lysates of wild type, daf-2(e1370) and daf-18(mg198) animals; 50 mM HEPES pH 7.4, 150 mM KCl, 0.05% NP-40; eluted with glycine pH 2.6; LC-MS/MS; repeated with anti-GFP mFX73 and independently constructed lines.

B1: HLH-30 (protein, UniProt H2KZZ2 1-524)
chain: MIRQLNSPGGGGGLGLNNPRAQQPPGAQQQQQPQQAQQQFYDDEPYQANASQFRFGAGKSMEQRRETGNLIPIAQRSMGSTSTPFGSAPTQSYFGGGSSGAALSSPRKMQQTHQMLFGNIQPPRGSPPSDGSDKIHRFGESPTPGGVGGVFGTELDDLIIDELMGMEDDQRMRPGATRPMTIGGEKTMSMARPIPGASSRAGSGHSGSPITIPNAMSNNFRQVVSSSAPTSSIDIEKMIGAVSNGGGNSGGDNDPEDYYRDRRKKDIHNMIERRRRYNINDRIKELGQMLPKNTSEDMKLNKGTILKASCDYIRVLQKDREQAMKTQQQQKSLESTAHKYADRVKELEEMLARQGVQVPPSHLPPIPKVIERPIKQEIDESPPNHTPTGSFVSSSGFLSEVTNNTAAMQITSPNDSRPNNFMNNSAPSDSFFSVGSASPPDYRTSSGTASWKLPGSNAFSDLMMDDLNPMMNGDPLISSAGAHPSPHFHSSQMSPDIHWDASGFSPDPINTQQSNSGHYHMDFS
In the case of B1, the binding entry is “binds”.

B2: PAR-5 (protein, UniProt P41932 1-248)
chain: MSDTVEELVQRAKLAEQAERYDDMAAAMKKVTEQGQELSNEERNLLSVAYKNVVGARRSSWRVISSIEQKTEGSEKKQQLAKEYRVKVEQELNDICQDVLKLLDEFLIVKAGAAESKVFYLKMKGDYYRYLAEVASEDRAAVVEKSQKAYQEALDIAKDKMQPTHPIRLGLALNFSVFYYEILNTPEHACQLAKQAFDDAIAELDTLNEDSYKDSTLIMQLLRDNLTLWTSDVGAEDQEQEGNQEAGN
On to B2, for which the binding result is reported as “binds”.

B3: FTT-2 (protein, UniProt Q20655 1-248)
chain: MSDGKEELVNRAKLAEQAERYDDMAASMKKVTELGAELSNEERNLLSVAYKNVVGARRSSWRVISSIEQKTEGSEKKQQMAKEYREKVEKELRDICQDVLNLLDKFLIPKAGAAESKVFYLKMKGDYYRYLAEVASGDDRNSVVEKSQQSYQEAFDIAKDKMQPTHPIRLGLALNFSVFFYEILNAPDKACQLAKQAFDDAIAELDTLNEDSYKDSTLIMQLLRDNLTLWTSDAATDDTDANETEGGN
Consider B3, for which the binding result is given as “binds”.
